Test results from PubChem BioAssay AID504467 (National Center for Advancing Translational Sciences (NCATS), 2011).
Hit rate of the full screen: of about 330,000 compounds, about 7,700 (2.3%) were called active. The shares of active, inactive and inconclusive entries below differ from those in the screen. Calls come from the whole dose curve; as a rule, active = well fitted inhibition curve with a large enough effect; inconclusive = small, poorly fitted or top-dose-only effect, or effect the other way; inactive = flat fitted curve, though single readings scatter. Where the call is inconclusive, the potency comes from a doubtful curve fit.

Experiment: qHTS screen for small molecules that inhibit ELG1-dependent DNA repair in human embryonic kidney (HEK293T) cells expressing luciferase-tagged ELG1; note: nearly all actives have a fitted effect of over 55% in size
Details: HEK293T ELG1-luciferase reporter, luminescence, 16 h, DNA damage induced by 5-fluorouridine; activity change, negative = inhibition: at 46.1 µM (top of the series)
How it was run: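 Luminescence from the luciferase reporter, measured 30 min after ONE-Glo reagent at room temperature, was the read-out. Beforehand, 2,000 cells per well were exposed for 16 hr at 37 °C to 5-fluorouridine together with compound or vehicle.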
% is set by controls: 0 for no effect and ±100 for the full control effect; potency is the fitted concentration of half-maximal effect.

SMILES	Potency	activity change, negative = inhibition
O=c1c2cc(F)ccc2sn1-c1ccccc1	inconclusive: 23.1 µM [inhibitor, single point]	–
CCc1ccc2nc(NC(=O)CSCc3c(C)noc3C)sc2c1	inconclusive: 20.6 µM [activator, single point]	–
CCC(=O)Nc1cccc(C(=O)c2ccccc2)c1	–	inactive: 0.277%
CC1CCN(S(=O)(=O)c2ccc(Cl)cc2Br)CC1	–	inactive: 6.5%
Cc1ccc(NC(=O)Nc2cccc([N+](=O)[O-])c2)cc1F	inconclusive: 18.4 µM [activator, partial curve]	–
O=C(Nc1nc(-c2cc(F)ccc2F)cs1)C1=COCCO1	inconclusive: 29.1 µM [activator, single point]	–
CCN(CC)CCC(=O)N1c2ccccc2CCc2ccc(NC(=O)OC)cc21	–	inactive: 16.5%
O=C(CCS(=O)(=O)c1ccccc1Cl)NCc1ccc(F)cc1	–	inactive: 18.9%
Cc1cc(Nc2cccc([N+](=O)[O-])c2)c2cccc(C)c2n1	–	inactive: 0%
CC(=O)c1c(C)[nH]c(C(=O)CSc2nnc(C3CCCCC3)n2N)c1C	inconclusive: 9.2 µM [inhibitor, single point]	–
Cn1cc(S(=O)(=O)NC[C@H]2O[C@@H](n3cnc4c(N)ncnc43)[C@H](O)[C@@H]2O)cn1	inconclusive: 18.3 µM [activator, single point]	–
O=C(c1scc2c1CCCC2)N1CCCCC1	–	inactive: 2.31%
Cc1ccc(NC(=S)NNC(=S)NCc2ccccc2)cc1	–	inactive: 8.05%
Cc1ccc(S(=O)(=O)CCc2nnc(NC(=O)c3cnccn3)s2)cc1	–	inactive: -7.55%
O=C(CCc1nc(-c2ccc(F)cc2)no1)Nc1cccc(C(=O)NC2CC2)c1	inconclusive: 29.1 µM [inhibitor, single point]	–
O=C(C1=C[C@H](c2ccc3c(c2)OCO3)C[C@H](OCCCCO)O1)N1CCN(Cc2ccc3c(c2)OCO3)CC1	inconclusive: 4.11 µM [inhibitor, partial curve, poor fit]	–
CCN(CC)S(=O)(=O)c1ccc(N2CCOCC2)c(NC(=O)Cc2ccccc2F)c1	active: 18.4 µM	–
CCCC(=O)c1ccc(N2CCOCC2)c(F)c1	inconclusive: 23.1 µM [activator, single point]	–
O=C(O)CC1(CC(=O)Nc2cccc(C(=O)O)c2)CCCC1	inconclusive: 23.1 µM [activator, partial curve]	–
CCOc1ccc2nc(NC(=O)C3CCCN(S(=O)(=O)c4cccc5nonc45)C3)sc2c1 (configuration not stated)	active: 23.1 µM	–
COc1cc(C#CC#CCN2CCCCC2)ccc1O	inconclusive: 29.1 µM [activator, single point]	–
Cc1c(C=O)c2ccccn2c1C(=O)c1ccc(F)cc1	inconclusive: 11.6 µM [inhibitor, partial curve]	–
Cc1ccc(C(=O)C2CCOC(C)(C)C2)cc1 (configuration not stated)	–	inactive: 13.6%
O=C(c1ccc(CS(=O)(=O)c2cccc(C(F)(F)F)c2)o1)N1CCN(c2ccccn2)CC1	inconclusive: 23.1 µM [inhibitor, single point]	–

Look-ups from above:
For activity change, negative = inhibition, `O=C(CCS(=O)(=O)c1ccccc1Cl)NCc1ccc(F)cc1` has the entry inactive: 18.9%
For Potency, `O=C(C1=C[C@H](c2ccc3c(c2)OCO3)C[C@H](OCCCCO)O1)N1CCN(Cc2ccc3c(c2)OCO3)CC1` has the entry inconclusive: 4.11 µM [inhibitor, partial curve, poor fit]
For activity change, negative = inhibition, `CCN(CC)CCC(=O)N1c2ccccc2CCc2ccc(NC(=O)OC)cc21` has the entry inactive: 16.5%

(cont.)

SMILES	Potency	activity change, negative = inhibition
COc1ccc([C@@H]2C[C@H]3CN(Cc4ccccc4OC)C(=O)[C@]34CCCN24)cc1C	inconclusive: 25.9 µM [inhibitor, partial curve, poor fit]	–
CCCCNC(=S)N(CCCO)Cc1cc2cc3c(cc2[nH]c1=O)OCCO3	inconclusive: 25.9 µM [inhibitor, partial curve, poor fit]	–
CCOC(=O)c1c(NC(=S)Nc2ccc(OC)cc2)sc2c1CCC2	–	inactive: 9.81%
CC(=O)c1ccc(OCc2cc(C(=O)N3CCC(Oc4ccccc4C)CC3)no2)cc1	inconclusive: 6.51 µM [activator, single point]	–
Cn1cccc1CNC(=O)Nc1ccccc1	inconclusive: 14.6 µM [activator, partial curve]	–
O=C(O)CCCC(=O)N1CCOCCOCCOCCOCC1	–	inactive: -2.75%
COc1ccc(S(=O)(=O)N2CCCCC2)cc1N(C)S(=O)(=O)c1ccccc1	–	inactive: 0%
Cc1cccc(Nc2nc(N)nc(CN3CCN(Cc4ccc5c(c4)OCO5)CC3)n2)c1	inconclusive: 20.6 µM [inhibitor, single point]	–
COc1cc2cc(C(c3nnnn3C3CCCCC3)N(C)C3CCCCC3)c(=O)[nH]c2cc1OC (configuration not stated)	inconclusive: 16.4 µM [inhibitor, partial curve, poor fit]	–
CC(=O)Nc1ccc(C(=O)OCC(=O)N2CCC(Cc3ccccc3)CC2)cc1	active: 6.51 µM	–
COc1ccc2cc(C(=O)C3CCCN(C(=O)/C=C/c4ccccn4)C3)ccc2c1 (configuration not stated)	–	inactive: 4.41%
OCC1(CCOc2ccccc2)CCN(CC2=Cc3cc(Cl)ccc3OC2)CC1	–	inactive: -13.6%
O=C(COC(=O)C1CC2C=CC1C2)Nc1ccccc1 (configuration not stated)	inconclusive: 16.4 µM [activator, partial curve]	–
Nn1cnc2cc3ccccc3cc2c1=O	inconclusive: 23.1 µM [activator, partial curve, poor fit]	–
C=CCSC1=N/C(=C/c2ccsc2)C(=O)N1c1ccccc1	inconclusive: 29.1 µM [inhibitor, partial curve, poor fit]	–
CCc1ccc(/C=C2/Sc3ccccc3N(CC(=O)NCCCOC)C2=O)cc1	inconclusive: 18.3 µM [inhibitor, single point]	–
Cc1ccc(C)c(OCC(=O)Nc2ccc(N3CCOCC3)cc2N2CCOCC2)c1	inconclusive: 25.9 µM [inhibitor, single point]	–
CCC(=O)Nc1ccc2c(c1)ncn2C	–	inactive: 16.1%
CCOC(=O)c1sc2nc3n(c(=O)c2c1C)CCC(C)CC3 (configuration not stated)	–	inactive: -3.76%
CCc1nnc(NC(=O)CSc2ccc(-c3nc4ccc(C)cc4[nH]3)cn2)s1	inconclusive: 2.91 µM [activator, partial curve]	–
O=C(Nc1ccccc1)c1nc[nH]c1C(=O)NCCNC(=O)c1[nH]cnc1C(=O)Nc1ccccc1	active: 2.31 µM	–
COc1cc(C#Cc2c(-c3cncn3C)n(C)c3ccc(-c4cnc(OC)nc4)cc23)cc(OC)c1	inconclusive: 2.59 µM [inhibitor, full curve]	–
CCOC(=O)c1c(NC(=S)Nc2cccnc2)sc(C)c1C	inconclusive: 29.1 µM [activator, single point]	–
